Test results as given in article PMC11788927.
Read-outs that look alike come from different tables or passages of the source. No constants are given. Whether binding was seen depends on the method and setting. Binding seen in cells or lysates may run through a third protein. These calls come from enrichment with a bait or labelling near it, and not all partners need be listed. One block for each molecule: values may come before it.

Protein sequences, listed by entry. Tags and fused reporters are not part of them.
UniProt O94913: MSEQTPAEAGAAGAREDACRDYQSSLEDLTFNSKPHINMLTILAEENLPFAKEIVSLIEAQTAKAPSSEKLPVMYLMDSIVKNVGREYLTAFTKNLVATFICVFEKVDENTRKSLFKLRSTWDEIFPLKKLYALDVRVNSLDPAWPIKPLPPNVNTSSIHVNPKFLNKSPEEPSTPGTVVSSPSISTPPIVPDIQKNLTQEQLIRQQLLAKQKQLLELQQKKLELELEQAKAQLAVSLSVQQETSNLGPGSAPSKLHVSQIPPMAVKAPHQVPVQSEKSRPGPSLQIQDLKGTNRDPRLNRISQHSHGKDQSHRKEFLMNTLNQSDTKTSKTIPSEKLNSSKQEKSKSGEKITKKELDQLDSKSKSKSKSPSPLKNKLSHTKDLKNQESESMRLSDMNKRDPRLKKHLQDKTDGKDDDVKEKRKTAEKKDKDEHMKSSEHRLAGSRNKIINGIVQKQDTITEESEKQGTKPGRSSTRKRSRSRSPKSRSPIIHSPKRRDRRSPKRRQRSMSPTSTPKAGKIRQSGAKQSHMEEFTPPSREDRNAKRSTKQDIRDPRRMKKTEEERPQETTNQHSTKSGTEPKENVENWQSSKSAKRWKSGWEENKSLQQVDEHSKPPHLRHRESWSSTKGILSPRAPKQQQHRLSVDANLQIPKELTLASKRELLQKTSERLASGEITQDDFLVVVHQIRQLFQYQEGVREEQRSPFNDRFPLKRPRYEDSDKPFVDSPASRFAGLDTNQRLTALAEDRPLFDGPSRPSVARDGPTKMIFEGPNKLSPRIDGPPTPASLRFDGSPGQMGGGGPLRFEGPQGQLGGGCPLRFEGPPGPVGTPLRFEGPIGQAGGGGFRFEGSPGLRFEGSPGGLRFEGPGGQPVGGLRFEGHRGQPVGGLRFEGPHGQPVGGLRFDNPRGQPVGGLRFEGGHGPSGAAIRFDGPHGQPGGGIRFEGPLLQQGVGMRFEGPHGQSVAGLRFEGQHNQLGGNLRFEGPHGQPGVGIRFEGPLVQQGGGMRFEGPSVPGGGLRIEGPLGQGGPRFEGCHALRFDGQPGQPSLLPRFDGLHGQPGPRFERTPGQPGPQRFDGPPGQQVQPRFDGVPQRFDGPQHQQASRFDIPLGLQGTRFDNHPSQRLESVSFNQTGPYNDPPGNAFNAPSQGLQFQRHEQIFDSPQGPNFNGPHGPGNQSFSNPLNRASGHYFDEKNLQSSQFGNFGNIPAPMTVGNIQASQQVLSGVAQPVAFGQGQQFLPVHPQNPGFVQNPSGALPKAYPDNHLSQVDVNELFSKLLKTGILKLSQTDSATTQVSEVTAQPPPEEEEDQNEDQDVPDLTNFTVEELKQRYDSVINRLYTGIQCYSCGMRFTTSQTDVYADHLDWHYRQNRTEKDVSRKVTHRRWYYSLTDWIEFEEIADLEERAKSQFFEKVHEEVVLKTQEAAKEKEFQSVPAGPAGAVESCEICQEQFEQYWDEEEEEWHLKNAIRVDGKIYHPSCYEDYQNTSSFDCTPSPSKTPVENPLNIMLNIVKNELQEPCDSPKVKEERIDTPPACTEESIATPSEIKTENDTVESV
UniProt P51003: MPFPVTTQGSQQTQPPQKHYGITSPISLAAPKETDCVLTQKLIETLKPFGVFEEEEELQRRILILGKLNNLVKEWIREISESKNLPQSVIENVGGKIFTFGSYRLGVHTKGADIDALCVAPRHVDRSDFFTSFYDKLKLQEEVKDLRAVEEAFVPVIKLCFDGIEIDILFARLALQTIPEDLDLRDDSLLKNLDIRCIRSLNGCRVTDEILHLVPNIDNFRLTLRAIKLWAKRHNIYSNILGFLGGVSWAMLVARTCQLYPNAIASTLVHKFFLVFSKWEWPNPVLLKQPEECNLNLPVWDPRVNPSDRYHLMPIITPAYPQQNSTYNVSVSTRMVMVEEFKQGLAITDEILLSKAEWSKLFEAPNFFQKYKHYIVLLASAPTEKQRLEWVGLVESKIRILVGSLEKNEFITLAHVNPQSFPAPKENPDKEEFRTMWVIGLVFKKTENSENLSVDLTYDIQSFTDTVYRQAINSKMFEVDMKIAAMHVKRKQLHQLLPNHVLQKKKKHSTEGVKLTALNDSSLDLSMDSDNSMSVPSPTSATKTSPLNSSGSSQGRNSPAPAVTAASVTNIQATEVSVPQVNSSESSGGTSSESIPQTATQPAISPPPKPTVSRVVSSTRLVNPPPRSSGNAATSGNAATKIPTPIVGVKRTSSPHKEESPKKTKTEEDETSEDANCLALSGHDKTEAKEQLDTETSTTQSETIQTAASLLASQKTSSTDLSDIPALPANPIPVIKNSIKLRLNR
UniProt O60293: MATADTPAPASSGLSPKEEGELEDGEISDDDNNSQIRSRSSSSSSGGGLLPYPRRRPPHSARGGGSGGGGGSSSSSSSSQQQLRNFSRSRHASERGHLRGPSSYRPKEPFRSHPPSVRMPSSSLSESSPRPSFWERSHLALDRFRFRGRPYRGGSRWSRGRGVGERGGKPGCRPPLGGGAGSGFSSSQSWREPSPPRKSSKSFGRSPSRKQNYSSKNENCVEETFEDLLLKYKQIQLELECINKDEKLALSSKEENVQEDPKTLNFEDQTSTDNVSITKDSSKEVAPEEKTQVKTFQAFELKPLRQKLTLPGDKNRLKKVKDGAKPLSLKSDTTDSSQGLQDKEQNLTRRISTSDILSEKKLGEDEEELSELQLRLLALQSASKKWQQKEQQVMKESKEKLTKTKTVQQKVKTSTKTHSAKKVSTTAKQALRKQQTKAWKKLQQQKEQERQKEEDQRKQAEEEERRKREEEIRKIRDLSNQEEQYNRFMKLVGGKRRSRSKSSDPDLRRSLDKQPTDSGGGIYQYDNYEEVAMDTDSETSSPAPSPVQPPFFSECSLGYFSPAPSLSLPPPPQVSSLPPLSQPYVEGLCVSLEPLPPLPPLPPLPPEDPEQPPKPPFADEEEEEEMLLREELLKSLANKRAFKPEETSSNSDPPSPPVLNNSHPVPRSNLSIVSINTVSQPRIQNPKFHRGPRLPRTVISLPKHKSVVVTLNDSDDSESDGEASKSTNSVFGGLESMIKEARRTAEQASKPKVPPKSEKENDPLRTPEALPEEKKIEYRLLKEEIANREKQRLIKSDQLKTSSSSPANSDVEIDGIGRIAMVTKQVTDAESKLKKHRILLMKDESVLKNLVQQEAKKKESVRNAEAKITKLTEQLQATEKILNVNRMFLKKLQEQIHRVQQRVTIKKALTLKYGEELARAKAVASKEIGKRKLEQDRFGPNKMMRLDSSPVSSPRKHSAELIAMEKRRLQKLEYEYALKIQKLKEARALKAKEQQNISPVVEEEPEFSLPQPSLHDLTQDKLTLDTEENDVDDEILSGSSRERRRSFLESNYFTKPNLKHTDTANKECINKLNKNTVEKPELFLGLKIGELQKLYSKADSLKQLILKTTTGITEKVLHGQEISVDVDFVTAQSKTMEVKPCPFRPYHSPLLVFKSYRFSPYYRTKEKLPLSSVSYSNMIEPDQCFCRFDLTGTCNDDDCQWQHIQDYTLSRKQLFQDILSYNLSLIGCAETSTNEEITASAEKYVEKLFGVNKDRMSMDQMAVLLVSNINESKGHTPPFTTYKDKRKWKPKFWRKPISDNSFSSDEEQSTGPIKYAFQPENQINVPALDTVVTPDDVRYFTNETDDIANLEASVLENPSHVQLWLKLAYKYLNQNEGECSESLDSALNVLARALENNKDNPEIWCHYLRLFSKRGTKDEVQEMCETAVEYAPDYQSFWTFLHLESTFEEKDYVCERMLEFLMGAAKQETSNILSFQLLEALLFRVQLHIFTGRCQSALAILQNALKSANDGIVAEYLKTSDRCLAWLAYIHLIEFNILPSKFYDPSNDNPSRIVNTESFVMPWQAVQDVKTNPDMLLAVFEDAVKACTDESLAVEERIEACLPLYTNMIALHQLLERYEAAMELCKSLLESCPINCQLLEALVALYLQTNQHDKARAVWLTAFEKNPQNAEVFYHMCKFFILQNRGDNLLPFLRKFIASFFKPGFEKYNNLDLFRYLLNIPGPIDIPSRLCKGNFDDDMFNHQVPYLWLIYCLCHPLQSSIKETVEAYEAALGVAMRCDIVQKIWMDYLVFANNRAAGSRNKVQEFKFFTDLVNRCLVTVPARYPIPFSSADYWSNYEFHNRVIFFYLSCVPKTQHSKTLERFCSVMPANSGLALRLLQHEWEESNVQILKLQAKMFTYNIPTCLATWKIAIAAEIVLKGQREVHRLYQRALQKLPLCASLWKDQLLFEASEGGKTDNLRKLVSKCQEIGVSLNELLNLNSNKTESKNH

Columns and labels:
Assay in all cases: proximity labelling; PDB-MS (BioID): BirA*-tagged bait in stable HEK 293-FT cells, 50 μm biotin for 24 h, Benzonase-treated lysate, streptavidin sepharose pull-down, LC-MS/MS, SAINT (Bayesian FDR ≤ 0.05, Log2 fold-change ≥ 1.0); also done in cells treated with PABPN1-specific, ZC3H14-specific or control siRNAs
BirA*-PABPN1 (human) [1] = target: T1, BirA*-PABPN1 (human) (UniProt Q86U42)
T1 sequence: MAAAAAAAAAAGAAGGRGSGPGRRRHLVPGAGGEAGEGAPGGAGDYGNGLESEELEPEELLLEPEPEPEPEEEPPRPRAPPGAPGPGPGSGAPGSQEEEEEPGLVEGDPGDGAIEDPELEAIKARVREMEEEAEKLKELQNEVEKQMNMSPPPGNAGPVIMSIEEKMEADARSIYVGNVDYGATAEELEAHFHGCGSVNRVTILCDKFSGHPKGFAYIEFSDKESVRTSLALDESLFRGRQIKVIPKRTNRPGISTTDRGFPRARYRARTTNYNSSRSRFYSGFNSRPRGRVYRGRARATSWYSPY

BirA*-ZC3H14 (human) [2] = target: T2, BirA*-ZC3H14 (human) (UniProt Q6PJT7)
T2 sequence: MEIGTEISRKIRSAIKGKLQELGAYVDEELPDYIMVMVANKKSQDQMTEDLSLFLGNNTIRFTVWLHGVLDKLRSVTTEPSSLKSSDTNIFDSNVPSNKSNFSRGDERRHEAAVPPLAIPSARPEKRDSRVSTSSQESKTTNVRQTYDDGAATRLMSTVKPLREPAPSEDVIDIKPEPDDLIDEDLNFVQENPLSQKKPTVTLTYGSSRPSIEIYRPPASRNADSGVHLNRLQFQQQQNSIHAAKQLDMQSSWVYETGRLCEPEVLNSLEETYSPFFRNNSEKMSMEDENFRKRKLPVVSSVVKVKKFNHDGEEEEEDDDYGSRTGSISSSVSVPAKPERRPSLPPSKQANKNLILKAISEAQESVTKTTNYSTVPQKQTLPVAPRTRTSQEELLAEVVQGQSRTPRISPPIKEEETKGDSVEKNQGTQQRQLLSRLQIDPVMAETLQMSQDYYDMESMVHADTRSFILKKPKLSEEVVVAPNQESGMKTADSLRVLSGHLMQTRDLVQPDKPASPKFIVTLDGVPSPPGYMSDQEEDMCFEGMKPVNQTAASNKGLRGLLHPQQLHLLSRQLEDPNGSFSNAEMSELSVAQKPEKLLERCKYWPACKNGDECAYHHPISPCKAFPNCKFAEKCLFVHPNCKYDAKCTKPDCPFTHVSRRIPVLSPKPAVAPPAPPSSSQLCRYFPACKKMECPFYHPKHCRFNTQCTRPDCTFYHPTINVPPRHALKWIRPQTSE

BirA*-PABPN1 (human) [3] = target: T1, BirA*-PABPN1 (human); remark: listed apart in the source
BirA*-ZC3H14 (human) [4] = target: T2, BirA*-ZC3H14 (human); remark: listed apart in the source

Molecule: PCF11 (from UniProt O94913 1-1555)
binding (BirA*-PABPN1 (human) [1]): binds
binding (BirA*-ZC3H14 (human) [2]): binds

Molecule: poly(A) polymerase alpha (PAPOLA) (from UniProt P51003 1-745) (enzyme)
binding (BirA*-PABPN1 (human) [1]): binds

B2: RBM27 (protein, UniProt Q9P2N5 1-1060)
chain: MLIEDVDALKSWLAKLLEPICDADPSALANYVVALVKKDKPEKELKAFCADQLDVFLQKETSGFVDKLFESLYTKNYLPLLEPVKPEPKPLVQEKEEIKEEVFQEPAEEERDGRKKKYPSPQKTRSESSERRTREKKREDGKWRDYDRYYERNELYREKYDWRRGRSKSRSKSRGLSRSRSRSRGRSKDRDPNRNVEHRERSKFKSERNDLESSYVPVSAPPPNSSEQYSSGAQSIPSTVTVIAPAHHSENTTESWSNYYNNHSSSNSFGRNLPPKRRCRDYDERGFCVLGDLCQFDHGNDPLVVDEVALPSMIPFPPPPPGLPPPPPPGMLMPPMPGPGPGPGPGPGPGPGPGPGPGHSMRLPVPQGHGQPPPSVVLPIPRPPITQSSLINSRDQPGTSAVPNLASVGTRLPPPLPQNLLYTVSERQPMYSREHGAAASERLQLGTPPPLLAARLVPPRNLMGSSIGYHTSVSSPTPLVPDTYEPDGYNPEAPSITSSGRSQYRQFFSRTQTQRPNLIGLTSGDMDVNPRAANIVIQTEPPVPVSINSNITRVVLEPDSRKRAMSGLEGPLTKKPWLGKQGNNNQNKPGFLRKNQYTNTKLEVKKIPQELNNITKLNEHFSKFGTIVNIQVAFKGDPEAALIQYLTNEEARKAISSTEAVLNNRFIRVLWHRENNEQPTLQSSAQLLLQQQQTLSHLSQQHHHLPQHLHQQQVLVAQSAPSTVHGGIQKMMSKPQTSGAYVLNKVPVKHRLGHAGGNQSDASHLLNQSGGAGEDCQIFSTPGHPKMIYSSSNLKTPSKLCSGSKSHDVQEVLKKKQEAMKLQQDMRKKRQEVLEKQIECQKMLISKLEKNKNMKPEERANIMKTLKELGEKISQLKDELKTSSAVSTPSKVKTKTEAQKELLDTELDLHKRLSSGEDTTELRKKLSQLQVEAARLGILPVGRGKTMSSQGRGRGRGRGGRGRGSLNHMVVDHRPKALTVGGFIEEEKEDLLQHFSTANQGPKFKDRRLQISWHKPKVPSISTETEEEEVKEEETETSDLFLPDDDDEDEDEYESRSWRR
binding (BirA*-PABPN1 (human) [3]): binds
binding (BirA*-ZC3H14 (human) [4]): binds

Other lines, results leading:

binding (BirA*-ZC3H14 (human) [2]): binds
Molecule: ZFC3H1 (from UniProt O60293 1-1989)

binding (BirA*-PABPN1 (human) [3]): binds
binding (BirA*-ZC3H14 (human) [4]): binds
B1: RBM33 (protein, UniProt Q96EV2 1-1170)
chain: MAAALGASGGAGAGDDDFDQFDKPGAERSWRRRAADEDWDSELEDDLLGEDLLSGKKNQSDLSDEELNDDLLQSDNEDEENFSSQGVTISLNATSGMVTSFELSDNTNDQSGEQESEYEQEQGEDELVYHKSDGSELYTQEYPEEGQYEGHEAELTEDQIEYVEEPEEEQLYTDEVLDIEINEPLDEFTGGMETLELQKDIKEESDEEEEDDEESGRLRFKTERKEGTIIRLSDVTRERRNIPETLELSAEAKAALLEFEERERQHKQGRYSSRRGGRRGGPLMCRGVGDQRRESTERGRMKDHRPALLPTQPPVVPQAPPPPPPPPQQQPIRSLFQPQPLQPLLPVQHPHHPSPPQGMHMPPQLETPRMMMTPPPVTPQQPKNIHINPHFKGTVVTPVQVPLLPVPSQPRPAVGPQRFPGPPEFPQHTPGPVPNSFSQPPRLPLQDQWRAPPPPQDRDPFFLGVSGEPRFPSHLFLEQRSPPPPPPPPTLLNSSHPVPTQSPLPFTQPGPAFNQQGQQPVFPRERPVRPALQPPGPVGILHFSQPGSATTRPFIPPRQPFLPGPGQPFLPTHTQPNLQGPLHPPLPPPHQPQPQQPQQQPPPQHQPPHQPPHQPPPQHQPPPQHPPQHPPQHQHHHHHHHLSVPPPPLMPMSQPQFRPHVQTAQPQASSSRMQCPQRQGLRHNTTSQNVSKRPMQQMQPTAPRNSNLRELPIAPSHVIEMSSSRCSATPSAQVKPIVSASPPSRAVAGSRSSQGKTEVKVKPASPVAQPKEEAKTETEFPDEDEETRLYRLKIEEQKRLREEILKQKELRRQQQAGARKKELLERLAQQQQQLYAPPPPAEQEEQALSPSPTNGNPLLPFPGAQVRQNVKNRLLVKNQDVSISNVQPKTSNFVPSSANMQYQGQQMKALKHLRQTRTVPQSQTQPLHKVLPIKPADVEEPAVPQTPRVASIQGRPQDTKPGVKRTVTHRTNSGGGDGPHISSKVRVIKLSGGGGESDGFFHPEGQPQRLPQPPEVGPQPARKVTLTRGGLQQPPHLPAGPHAHSPVPPGIKSIQGIHPAKKAIMHGRGRGVAGPMGRGRLMPNKQNLRVVECKPQPCVVSVEGLSSSTTDAQLKSLLMSVGPIQSLQMLPQQRKAIAKFKEPAHALAFQQKFHRHMIDLSHINVALIVE

binding (BirA*-PABPN1 (human) [3]): binds
binding (BirA*-ZC3H14 (human) [4]): binds
B3: ZC3H18 (protein, UniProt Q86VM9 1-953)
chain: MDVAESPERDPHSPEDEEQPQGLSDDDILRDSGSDQDLDGAGVRASDLEDEESAARGPSQEEEDNHSDEEDRASEPKSQDQDSEVNELSRGPTSSPCEEEGDEGEEDRTSDLRDEASSVTRELDEHELDYDEEVPEEPAPAVQEDEAEKAGAEDDEEKGEGTPREEGKAGVQSVGEKESLEAAKEKKKEDDDGEIDDGEIDDDDLEEGEVKDPSDRKVRPRPTCRFFMKGNCTWGMNCRFIHPGVNDKGNYSLITKADPFPPNGAPPLGPHPLMPANPWGGPVVDEILPPPPPEPPTESAWERGLRHAKEVLKKATIRKEQEPDFEEKRFTVTIGEDEREFDKENEVFRDWNSRIPRDVRDTVLEPYADPYYDYEIERFWRGGQYENFRVQYTETEPYHNYRERERERERENRQRERERERERDRERERRQRERERERERERDKERQRRKEEWERERAKRDEKDRQHRDRDREKEREKEKGKPKPRSPQPPSRQAEPPKKEAATTGPQVKRADEWKDPWRRSKSPKKKLGVSVSPSRARRRRKTSASSASASNSSRSSSRSSSYSGSGSSRSRSRSSSYSSYSSRSSRHSSFSGSRSRSRSFSSSPSPSPTPSPHRPSIRTKGEPAPPPGKAGEKSVKKPAPPPAPPQATKTTAPVPEPTKPGDPREARRKERPARTPPRRRTLSGSGSGSGSSYSGSSSRSRSLSVSSVSSVSSATSSSSSAHSVDSEDMYADLASPVSSASSRSPAPAQTRKEKGKSKKEDGVKEEKRKRDSSTQPPKSAKPPAGGKSSQQPSTPQQAPPGQPQQGTFVAHKEIKLTLLNKAADKGSRKRYEPSDKDRQSPPPAKRPNTSPDRGSRDRKSGGRLGSPKPERQRGQNSKAPAAPADRKRQLSPQSKSSSKVTSVPGKASDPGAASTKSGKASTLSRREELLKQLKAVEDAIARKRAKIPGKA
